From patent publication US20130131075A1, “NEW COMPOUNDS” (Boehringer Ingelheim International GmbH, priority 2009, published 2013)

Biological target: T1, cynomolgus BK1-receptor (Macaca fascicularis, UniProt Q3BCU0)
T1 construct: expressed in transfected cells; host or cells: CHO cells (homogenate)
T1 sequence (Q3BCU0 1-352): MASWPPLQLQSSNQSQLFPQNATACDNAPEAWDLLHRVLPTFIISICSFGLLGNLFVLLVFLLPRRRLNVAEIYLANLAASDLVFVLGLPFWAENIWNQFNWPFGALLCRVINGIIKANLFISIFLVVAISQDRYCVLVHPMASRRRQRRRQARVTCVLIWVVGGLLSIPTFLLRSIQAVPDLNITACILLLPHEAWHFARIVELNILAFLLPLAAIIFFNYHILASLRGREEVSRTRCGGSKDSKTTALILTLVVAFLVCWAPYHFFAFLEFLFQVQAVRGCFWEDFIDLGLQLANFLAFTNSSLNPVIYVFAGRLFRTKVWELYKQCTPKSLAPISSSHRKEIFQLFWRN
Assay: cynoBK1-receptor binding assay
Settings: CHO cells expressing cynomolgus BK1-receptor, radioligand kallidine (DesArg10,Leu9)
Procedure: Description of the Method of Binding the cynoBK1-Receptor
CHO cells that express the cynomolgus BK1-receptor are cultivated in “HAM'S F-12 Medium”. The medium is removed from confluent cultures, the cells are washed with PBS buffer, scraped off or detached using Versene and isolated by centrifuging. Then the cells are homogenised in suspension, the homogenate is centrifuged and resuspended. After the protein content has been determined 200 μl of the homogenate (50 to 250 μg protein/assay) are incubated for 60-180 minutes at ambient temperature with 0.5 to 5.0 nM kallidine (DesArg10,Leu9), [3,4-Prolyl-3,43H(N)] and increasing concentrations of the test substance in a total volume of 250 μl. The incubation is stopped by rapid filtration through GF/B glass fibre filters that have been pre-treated with polyethyleneimine (0.3%). The radioactivity bound to the protein is measured with a TopCount NXT. The radioactivity bound in the presence of 1.0 μM kallidine (DesArg10) is defined as non-specific binding. The concentration binding curve may be analysed using computer-aided non-linear curve fitting to determine the corresponding Ki value for the test substance.
Test results of the cynoBK1-receptor binding assay: […]

## CSc1ccc(Nc2ccc(CNC(=O)C3(NC(=O)c4cncnc4)CC3)cc2)c(C(F)(F)F)c1 [(28)]
  Ki: 0.6 nM
At 10 μgmol/L
  inhibition at 10 µM: 101%
